Laboratory results reported in paper PMC4737187.
These are yes or no findings as the source states them, for the method shown. In cells and extracts the contact can be indirect. Some entries that bind do so weakly or less than the wild type.

Protein sequences, listed by entry. Tags and fused reporters are not part of them. Residues count along the entry.
UniProt P14618: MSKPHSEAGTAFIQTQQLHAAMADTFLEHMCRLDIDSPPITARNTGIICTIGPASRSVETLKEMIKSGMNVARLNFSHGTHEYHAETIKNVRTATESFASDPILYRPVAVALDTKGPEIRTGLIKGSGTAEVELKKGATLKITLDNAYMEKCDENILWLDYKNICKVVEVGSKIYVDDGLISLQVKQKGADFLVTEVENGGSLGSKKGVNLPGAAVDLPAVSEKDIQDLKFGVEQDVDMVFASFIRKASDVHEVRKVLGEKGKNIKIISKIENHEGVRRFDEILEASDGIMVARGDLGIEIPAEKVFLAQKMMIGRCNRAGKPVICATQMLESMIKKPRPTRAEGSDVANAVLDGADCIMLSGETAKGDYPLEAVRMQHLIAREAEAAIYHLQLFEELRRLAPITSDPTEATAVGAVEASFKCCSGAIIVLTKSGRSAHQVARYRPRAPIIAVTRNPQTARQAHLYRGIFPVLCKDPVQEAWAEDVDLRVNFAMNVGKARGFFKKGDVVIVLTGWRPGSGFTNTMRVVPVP
UniProt P10515, residues 87-647: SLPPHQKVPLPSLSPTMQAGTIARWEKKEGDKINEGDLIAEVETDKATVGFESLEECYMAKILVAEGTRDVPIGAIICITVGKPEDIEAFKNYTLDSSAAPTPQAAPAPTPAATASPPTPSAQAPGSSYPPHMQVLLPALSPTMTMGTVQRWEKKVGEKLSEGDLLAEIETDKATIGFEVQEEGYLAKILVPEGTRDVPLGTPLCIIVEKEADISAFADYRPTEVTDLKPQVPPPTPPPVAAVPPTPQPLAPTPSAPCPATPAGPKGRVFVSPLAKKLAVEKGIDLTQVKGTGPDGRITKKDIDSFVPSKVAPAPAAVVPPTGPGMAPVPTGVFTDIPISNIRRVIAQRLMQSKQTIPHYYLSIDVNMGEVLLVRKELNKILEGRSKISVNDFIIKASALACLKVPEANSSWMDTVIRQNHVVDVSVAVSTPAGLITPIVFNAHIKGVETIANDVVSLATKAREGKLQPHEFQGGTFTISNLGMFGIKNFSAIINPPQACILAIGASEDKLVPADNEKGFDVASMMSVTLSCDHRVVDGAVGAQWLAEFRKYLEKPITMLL
UniProt P35869, residues 11-848: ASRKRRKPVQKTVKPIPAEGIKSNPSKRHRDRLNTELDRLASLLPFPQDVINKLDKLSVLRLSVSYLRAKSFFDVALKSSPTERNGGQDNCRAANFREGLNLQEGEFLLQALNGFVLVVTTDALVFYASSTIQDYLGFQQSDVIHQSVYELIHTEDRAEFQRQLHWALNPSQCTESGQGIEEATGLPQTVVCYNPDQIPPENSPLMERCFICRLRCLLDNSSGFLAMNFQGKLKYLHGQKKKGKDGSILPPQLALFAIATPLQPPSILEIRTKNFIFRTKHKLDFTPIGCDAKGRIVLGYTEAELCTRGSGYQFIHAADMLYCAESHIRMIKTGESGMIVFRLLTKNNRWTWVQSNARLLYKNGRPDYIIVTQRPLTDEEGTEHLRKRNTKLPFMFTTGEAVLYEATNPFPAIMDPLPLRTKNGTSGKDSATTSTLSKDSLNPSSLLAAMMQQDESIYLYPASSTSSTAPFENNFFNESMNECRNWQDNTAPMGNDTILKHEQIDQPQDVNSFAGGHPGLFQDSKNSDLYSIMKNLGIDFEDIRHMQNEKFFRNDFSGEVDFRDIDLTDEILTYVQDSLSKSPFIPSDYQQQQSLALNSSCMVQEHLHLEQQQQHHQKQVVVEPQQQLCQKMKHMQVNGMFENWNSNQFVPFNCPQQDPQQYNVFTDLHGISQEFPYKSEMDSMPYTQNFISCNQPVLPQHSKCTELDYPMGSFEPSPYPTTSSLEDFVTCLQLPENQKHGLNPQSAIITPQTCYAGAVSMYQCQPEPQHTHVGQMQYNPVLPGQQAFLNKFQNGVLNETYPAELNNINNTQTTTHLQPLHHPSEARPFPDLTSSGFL
UniProt Q09472: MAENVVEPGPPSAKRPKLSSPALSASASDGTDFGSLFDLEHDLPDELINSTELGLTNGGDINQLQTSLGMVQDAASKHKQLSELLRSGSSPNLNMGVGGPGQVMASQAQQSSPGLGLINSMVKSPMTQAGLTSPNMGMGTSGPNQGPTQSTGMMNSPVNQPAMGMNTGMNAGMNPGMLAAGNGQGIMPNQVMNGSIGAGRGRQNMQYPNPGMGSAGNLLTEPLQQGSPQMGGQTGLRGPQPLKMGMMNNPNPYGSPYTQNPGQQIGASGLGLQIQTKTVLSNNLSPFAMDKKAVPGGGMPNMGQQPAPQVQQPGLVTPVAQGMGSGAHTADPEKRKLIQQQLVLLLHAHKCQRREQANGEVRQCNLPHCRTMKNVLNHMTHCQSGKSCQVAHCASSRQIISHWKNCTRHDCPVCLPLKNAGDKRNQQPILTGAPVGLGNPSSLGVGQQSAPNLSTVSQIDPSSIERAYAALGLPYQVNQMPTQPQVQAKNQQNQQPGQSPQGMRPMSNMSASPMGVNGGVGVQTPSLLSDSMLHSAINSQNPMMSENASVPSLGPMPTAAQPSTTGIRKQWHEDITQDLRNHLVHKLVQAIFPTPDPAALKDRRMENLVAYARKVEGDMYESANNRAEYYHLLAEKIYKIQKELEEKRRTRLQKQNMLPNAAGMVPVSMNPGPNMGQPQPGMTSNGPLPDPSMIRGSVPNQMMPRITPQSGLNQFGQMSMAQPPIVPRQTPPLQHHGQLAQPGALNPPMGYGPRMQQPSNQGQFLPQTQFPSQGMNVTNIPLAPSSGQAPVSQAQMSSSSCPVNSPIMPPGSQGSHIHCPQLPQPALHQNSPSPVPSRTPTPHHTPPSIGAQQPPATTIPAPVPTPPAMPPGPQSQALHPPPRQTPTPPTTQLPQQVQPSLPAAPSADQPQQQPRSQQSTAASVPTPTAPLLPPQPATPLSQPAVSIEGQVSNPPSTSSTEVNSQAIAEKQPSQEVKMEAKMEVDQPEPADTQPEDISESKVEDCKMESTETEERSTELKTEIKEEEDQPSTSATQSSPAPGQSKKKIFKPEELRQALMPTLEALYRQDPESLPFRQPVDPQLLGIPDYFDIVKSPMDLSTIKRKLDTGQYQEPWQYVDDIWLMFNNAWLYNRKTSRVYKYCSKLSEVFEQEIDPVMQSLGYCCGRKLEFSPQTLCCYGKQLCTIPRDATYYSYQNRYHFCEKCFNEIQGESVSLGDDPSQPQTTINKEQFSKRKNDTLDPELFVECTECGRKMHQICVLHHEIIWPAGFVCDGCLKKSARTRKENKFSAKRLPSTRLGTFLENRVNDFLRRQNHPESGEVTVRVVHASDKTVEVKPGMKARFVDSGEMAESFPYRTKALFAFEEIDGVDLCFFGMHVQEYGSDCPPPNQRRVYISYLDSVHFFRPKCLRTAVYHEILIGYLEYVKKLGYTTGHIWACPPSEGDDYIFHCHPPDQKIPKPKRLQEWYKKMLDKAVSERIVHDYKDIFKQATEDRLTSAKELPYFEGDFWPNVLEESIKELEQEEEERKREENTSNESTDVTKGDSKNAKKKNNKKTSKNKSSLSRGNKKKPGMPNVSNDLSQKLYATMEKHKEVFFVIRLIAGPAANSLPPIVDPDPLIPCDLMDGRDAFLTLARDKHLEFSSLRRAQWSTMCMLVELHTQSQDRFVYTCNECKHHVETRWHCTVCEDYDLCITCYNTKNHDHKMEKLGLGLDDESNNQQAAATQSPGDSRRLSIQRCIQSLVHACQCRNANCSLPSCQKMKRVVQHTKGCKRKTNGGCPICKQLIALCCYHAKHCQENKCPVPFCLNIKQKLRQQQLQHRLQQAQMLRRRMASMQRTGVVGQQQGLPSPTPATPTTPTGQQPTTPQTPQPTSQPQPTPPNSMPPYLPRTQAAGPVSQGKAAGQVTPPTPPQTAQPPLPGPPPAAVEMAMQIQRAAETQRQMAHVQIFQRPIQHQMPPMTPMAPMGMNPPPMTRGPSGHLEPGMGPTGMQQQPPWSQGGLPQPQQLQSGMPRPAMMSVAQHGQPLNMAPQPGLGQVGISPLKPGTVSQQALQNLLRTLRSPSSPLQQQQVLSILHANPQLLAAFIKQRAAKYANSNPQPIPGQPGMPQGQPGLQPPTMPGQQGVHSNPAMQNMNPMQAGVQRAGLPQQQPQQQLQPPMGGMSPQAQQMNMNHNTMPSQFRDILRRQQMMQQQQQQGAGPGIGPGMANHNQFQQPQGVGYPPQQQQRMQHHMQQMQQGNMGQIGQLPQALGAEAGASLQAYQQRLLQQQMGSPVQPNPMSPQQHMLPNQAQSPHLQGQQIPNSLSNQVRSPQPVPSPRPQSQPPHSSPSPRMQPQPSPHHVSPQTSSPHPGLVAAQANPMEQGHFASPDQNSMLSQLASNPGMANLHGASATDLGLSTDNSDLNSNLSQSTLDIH

Key:
[1] = biological target: FLAG-HA-tagged pyruvate kinase M2 (ePKM2) (human) (UniProt P14618); assay: co-IP; FLAG-HA-tagged bait purified on anti-FLAG antibody-conjugated agarose from the solubilized chromatin fraction of stably transduced HeLa S3 cells treated with 100 nM indirubin for 3 h; western blotting; mock purification from non-transduced cells
[2] = biological target: E2 subunit of pyruvate dehydrogenase complex (PDC-E2), endogenous (human (endogenous in HeLa S3)) (UniProt P10515); assay: co-IP; chromatin fraction of HeLa S3 cells incubated with anti-AhR (N-19) or anti-PDC-E2 (ab110332) antibody, protein G-Agarose, 4°C; normal goat or mouse IgG as control; western blotting
[3] = biological target: Pyruvate kinase M2 (PKM2), endogenous (human (endogenous in HeLa S3)) (UniProt P14618); assay: co-IP; anti-PKM2 antibody on Dynabeads Protein G, whole-cell lysates of HeLa S3 cells (150 mM NaCl, 0.5% NP-40) not treated or treated with 100 nM indirubin for 1 h; normal rabbit IgG as control; western blotting
[4] = biological target: FLAG-HA-tagged arylhydrocarbon receptor (eAhR) (human) (UniProt P35869); assay: co-IP; FLAG-HA-tagged bait purified on anti-FLAG antibody-conjugated agarose from the solubilized chromatin fraction of stably transduced HeLa S3 cells treated with 100 nM indirubin for 3 h; western blotting; mock purification from non-transduced cells
[5] = biological target: Arylhydrocarbon receptor (AhR), endogenous (human (endogenous in HeLa S3)) (UniProt P35869); assay: co-IP; chromatin fraction of HeLa S3 cells incubated with anti-AhR (N-19) or anti-PDC-E2 (ab110332) antibody, protein G-Agarose, 4°C; normal goat or mouse IgG as control; western blotting
[6] = biological target: FLAG-HA-tagged arylhydrocarbon receptor (eAhR) (human) (UniProt P35869); assay: co-IP; eAhR purified on anti-FLAG antibody-conjugated agarose from whole-cell lysates of eAhR-expressing HeLa S3 cells not treated or treated with 100 nM indirubin for 3 h; western blotting

Arylhydrocarbon receptor (AhR), endogenous (from UniProt P35869 11-848)
binding [1]: binds | binding [2]: binds | binding [3]: binds

Histone acetyltransferase p300, endogenous (from UniProt Q09472 1-2414)
binding [4]: binds | binding [1]: binds

Pyruvate kinase M2 (PKM2), endogenous (from UniProt P14618 1-531)
binding [4]: binds | binding [5]: binds | binding [6]: binds
